# Measured values published in publication PMC12752606, “METTL10‐Mediated PIAS3 Methylation Links Purine Metabolism to Gastric Cancer Progression” (Advanced Science, 2025).
# The chains behind the UniProt entries cited, without tags or fusion partners. Where a name states a change or a piece, a line headed by the entry shows the natural chain unless it says otherwise. A line that says so, or that is headed by a name, gives the form on record, which may keep a tag or linker.
# Flag-METTL10 (Q5JPI9, form named): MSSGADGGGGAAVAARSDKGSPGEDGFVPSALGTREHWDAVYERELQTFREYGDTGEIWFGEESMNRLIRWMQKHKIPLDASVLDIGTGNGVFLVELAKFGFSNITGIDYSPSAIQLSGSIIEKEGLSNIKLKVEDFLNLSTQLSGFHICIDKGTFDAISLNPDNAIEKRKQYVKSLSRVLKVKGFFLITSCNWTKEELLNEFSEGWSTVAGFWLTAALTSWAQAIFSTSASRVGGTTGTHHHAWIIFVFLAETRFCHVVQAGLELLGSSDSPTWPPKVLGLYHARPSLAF
# Results are given in words; binding and its absence hold for the method and conditions named. Binding seen in cells or lysates may run through a third protein. These calls come from enrichment with a bait or labelling near it, and not all partners need be listed.
# Biological target: Flag-METTL10 (methyltransferase-like 10) (UniProt Q5JPI9)
# Assay: affinity purification with mass spectrometry; cells transfected with Flag-Vector or Flag-METTL10 (HEK293T by the results, MKN45 by the methods); Flag-M2 magnetic beads, 4 °C overnight; whole gel lanes by LC-MS/MS
binder,measurement,value
"PIAS3, endogenous (enzyme, UniProt Q9Y6X2 1-628) MAELGELKHMVMSFRVSELQVLLGFAGRNKSGRKHELLAKALHLLKSSCAPSVQMKIKELYRRRFPRKTLGPSDLSLLSLPPGTSPVGSPGPLAPIPPTLLAPGTLLGPKREVDMHPPLPQPVHPDVTMKPLPFYEVYGELIRPTTLASTSSQRFEEAHFTFALTPQQVQQILTSREVLPGAKCDYTIQVQLRFCLCETSCPQEDYFPPNLFVKVNGKLCPLPGYLPPTKNGAEPKRPSRPINITPLARLSATVPNTIVVNWSSEFGRNYSLSVYLVRQLTAGTLLQKLRAKGIRNPDHSRALIKEKLTADPDSEVATTSLRVSLMCPLGKMRLTVPCRALTCAHLQSFDAALYLQMNEKKPTWTCPVCDKKAPYESLIIDGLFMEILSSCSDCDEIQFMEDGSWCPMKPKKEASEVCPPPGYGLDGLQYSPVQGGDPSENKKKVEVIDLTIESSSDEEDLPPTKKHCSVTSAAIPALPGSKGVLTSGHQPSSVLRSPAMGTLGGDFLSSLPLHEYPPAFPLGADIQGLDLFSFLQTESQHYGPSVITSLDEQDALGHFFQYRGTPSHFLGPLAPTLGSSHCSATPAPPPGRVSSIVAPGGALREGHGGPLPSGPSLTGCRSDIISLD",binding,binds
